Experimental data from PubChem BioAssay AID445 (National Center for Advancing Translational Sciences (NCATS), 2006).
The other results are listed elsewhere or left out. The main result of the screen is listed elsewhere. These columns were measured beside it and carry no call. The list favours compounds with an active or inconclusive main result. Potencies come from curve fits of mixed quality, noted in brackets.

Assay: IkB Signaling
Conditions: ABC-DLBCL IkBa-CBG/CBR dual luciferase ratio (green luciferase fused to IkBa over red control in OCI-Ly3 lymphoma cells), 4 h
Outline: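 In this assay, an IκBα–CBG68 fusion accumulates when IKK-driven degradation is blocked; native CBR normalizes for cell number. OCI-Ly3 cells were treated 4 h with compound and doxycycline, then green and red light read after Chroma-Glo addition.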

[1] = measured here: control luc red channel unless noted

Q: With `O=C1CC(c2nc3ccccc3[nH]2)CN1c1cccc(C(F)(F)F)c1` (stereo not drawn) as the compound, how does the AC50 [1] read?
A: Its AC50 is 10 µM [falling, partial curve].

Q: Which AC50 [1] does the source give for `Cc1ccc(C2C=C(c3ccc(Cl)cc3)Nc3nc(NS(=O)(=O)c4ccccc4)nn32)cc1` (stereo not drawn) here?
A: Its AC50 is 39.8 µM [falling, single point].

Q: For `O=C(CCC1N=C2c3ccccc3N=C(SCC(=O)Nc3ccccc3F)N2C1=O)NCc1ccccc1` (stereo not drawn), which AC50 [1] is on record?
A: The AC50 was 31.6 µM [falling, single point].

Q: With `Cc1ccc(CNC(=O)CCCCn2c(=O)c3ccccc3n(Cc3c(C)cc(C)cc3C)c2=O)cc1` as the compound, how does the AC50 [1] read?
A: Its AC50 is 1 µM [falling, partial curve].

Q: For `CCOC(=O)c1ccccc1NC(=O)Cn1c(=O)n(Cc2nc(-c3ccccc3)no2)c(=O)c2ccccc21`, which AC50 [1] is on record?
A: Its AC50 is 12.6 µM [falling, partial curve].

Q: With `COc1ccc(OC)c(S(=O)(=O)N2CCC(c3ccncc3)CC2)c1` as the compound, how does the AC50 [1] read?
A: The AC50 was 2.51 µM [rising, full curve].

Q: Which AC50 [1] does the source give for `CCc1ccc(-n2c(SCc3ccccc3F)nc3[nH]ncc3c2=O)cc1` here?
A: The AC50 was 31.6 µM [falling, single point].

Q: With `O=C(c1ccc2c(c1)N(Cc1ccccc1F)C(=O)c1ccccc1S2(=O)=O)N1CCCCC1` as the compound, how does the AC50 [1] read?
A: Its AC50 is 5.01 µM [falling, full curve].

Q: Which AC50 [1] does the source give for `COc1cccc(NC(=O)CSC2=Nc3ccccc3N=C(c3ccc(F)cc3)C2)c1` here?
A: Its AC50 is 10 µM [falling, partial curve].

Q: Which AC50 (measured here: IkB-luc green channel) does the source give for `C[C@]12C[C@H](O)[C@H]3[C@@H](CCC4=CC(=O)CC[C@@]43C)[C@@H]1CC[C@@H]2C(=O)CO` here?
A: Its AC50 is 0.0158 µM [rising, full curve].

Q: And the AC50 (measured here: control luc red channel)?
A: Its AC50 is 0.0158 µM [rising, full curve, poor fit].

Q: Which AC50 [1] does the source give for `Oc1ccc(COCc2ccccc2)c2cccnc12` here?
A: The AC50 was 6.31 µM [rising, partial curve, poor fit] [measured here: IkB-luc green channel].

Q: Which AC50 [1] does the source give for `Cc1ccc2nc(-c3ccsc3)c(Nc3ccccc3C)n2c1` here?
A: Its AC50 is 0.0501 µM [falling, full curve, poor fit].

Q: For `COc1ccccc1/C=C/c1nc(C#N)c(N2CCCCC2)o1`, which AC50 [1] is on record?
A: Its AC50 is 39.8 µM [falling, single point].

Q: For `Cc1nc2nncn2c(N2CCN(c3ccccc3)CC2)c1C`, which AC50 [1] is on record?
A: The AC50 was 6.31 µM [falling, single point].

Q: Which AC50 [1] does the source give for `C/C(=C\C(=O)Nc1nccs1)c1ccccc1` here?
A: Its AC50 is 20 µM [falling, single point].

Q: With `COC(=O)c1scc(-c2ccccc2)c1S(=O)(=O)Nc1ccccc1` as the compound, how does the AC50 [1] read?
A: Its AC50 is 39.8 µM [falling, single point].

Q: Which AC50 [1] does the source give for `O=C1c2ccccc2C(=O)C1(c1ccccc1)N1CCN(c2cccc(Cl)c2)CC1` here?
A: The AC50 was 6.31 µM [falling, full curve, poor fit].

Q: With `CC(C)c1ccc(S(=O)(=O)c2nnn3c2nc(NCCc2ccccc2)c2sccc23)cc1` as the compound, how does the AC50 [1] read?
A: Its AC50 is 6.31 µM [falling, full curve].

Q: Which AC50 [1] does the source give for `N#CC1=C(N)Oc2c(ccc3cccnc23)C1c1cccnc1` (stereo not drawn) here?
A: Its AC50 is 31.6 µM [falling, partial curve].

Q: For `O=C(O)c1c(-c2ccccc2)c2oc3ccccc3c2[nH]c1=O`, which AC50 [1] is on record?
A: The AC50 was 3.98 µM [rising, full curve].

Q: For `CC(=O)Nc1ccc(S(=O)(=O)NCC2CCC(C(=O)NCCc3ccccc3)CC2)cc1` (stereo not drawn), which AC50 [1] is on record?
A: Its AC50 is 5.01 µM [falling, full curve, poor fit].

Q: With `O=C(CSc1nnnn1-c1ccccc1)Nc1nsc(-c2ccc(Cl)cc2)n1` as the compound, how does the AC50 [1] read?
A: Its AC50 is 1 µM [falling, full curve].

Q: With `COc1cc(-c2ccno2)ccc1S(=O)(=O)N1CCN(c2cc(C)ccc2C)CC1` as the compound, how does the AC50 [1] read?
A: The AC50 was 10 µM [falling, partial curve].

Q: Which AC50 [1] does the source give for `COCC(=O)Oc1c(Sc2ccc(C)cc2)c(C)nn1C(C)(C)C` here?
A: Its AC50 is 10 µM [falling, partial curve].

Q: Which AC50 [1] does the source give for `COc1cccc(N2CC(NC(=O)C(c3ccccc3)c3ccccc3)CC2=O)c1` (stereo not drawn) here?
A: The AC50 was 12.6 µM [falling, partial curve, poor fit].

Q: Which AC50 [1] does the source give for `Cc1cc(C(=O)CN2C(=O)NC(C)(c3cccc(Br)c3)C2=O)c(C)n1Cc1ccco1` (stereo not drawn) here?
A: Its AC50 is 15.8 µM [falling, partial curve].

Q: With `O=C(Nc1ccc(Br)c2cccnc12)c1cccc2ccccc12` as the compound, how does the AC50 [1] read?
A: The AC50 was 12.6 µM [rising, partial curve].

Q: With `Cc1cc(C)cc(NC(=O)CCC(=O)N2Cc3ccccc3Oc3ncccc32)c1` as the compound, how does the AC50 [1] read?
A: Its AC50 is 20 µM [falling, single point].

Q: For `Cc1ccc(CCNC(=O)c2cc3sccc3n2Cc2ccc(C)cc2)cc1`, which AC50 [1] is on record?
A: Its AC50 is 12.6 µM [falling, partial curve].

Q: With `c1ccc2nc(-c3nc4ccccc4[nH]3)ccc2c1` as the compound, how does the AC50 [1] read?
A: Its AC50 is 2.51 µM [falling, full curve].

Q: With `Cc1c(Cl)ccc2sc(NC(=O)c3ccc(S(=O)(=O)N4CCCc5ccccc54)cc3)nc12` as the compound, how does the AC50 [1] read?
A: The AC50 was 1 µM [falling, partial curve].

Q: Which AC50 [1] does the source give for `CCc1ccccc1NC(=O)c1nnn(-c2ccc(F)cc2)c1C` here?
A: Its AC50 is 0.398 µM [falling, partial curve].

Q: Which AC50 [1] does the source give for `CC1CCN(S(=O)(=O)c2ccc3c(c2)oc(=O)n3CC(=O)NCc2ccc(F)cc2)CC1` here?
A: Its AC50 is 31.6 µM [falling, single point].

Q: For `Cc1cc(C)cc(-n2c(SCC(=O)N3CCCCC3)nc3c([nH]c4ccccc43)c2=O)c1`, which AC50 [1] is on record?
A: The AC50 was 15.8 µM [rising, partial curve, poor fit].

Q: Which AC50 [1] does the source give for `COc1ccc(C(=O)c2cn[nH]c2-c2cc(Cl)ccc2O)cc1` here?
A: Its AC50 is 10 µM [falling, partial curve].

Q: Which AC50 [1] does the source give for `Cc1cc(C)nc(NS(=O)(=O)c2ccc(NC(=O)COc3ccc(Cl)cc3C)cc2)n1` here?
A: The AC50 was 25.1 µM [falling, single point].

Q: For `Cc1nc(SCc2cccc(F)c2)[nH]c(=O)c1C#N`, which AC50 [1] is on record?
A: Its AC50 is 7.94 µM [falling, partial curve].

Q: With `CCn1c(SCc2ccccc2)nnc1-c1ccc(S(=O)(=O)N2CCCCC2)cc1` as the compound, how does the AC50 [1] read?
A: Its AC50 is 31.6 µM [falling, partial curve].

Q: For `Clc1cccc(N2CCN(c3nc4ccccc4n4cnnc34)CC2)c1`, which AC50 [1] is on record?
A: Its AC50 is 3.98 µM [rising, single point].

Q: For `O=C(CNS(=O)(=O)c1ccc(Br)s1)NCC1COc2ccccc2O1` (stereo not drawn), which AC50 [1] is on record?
A: The AC50 was 25.1 µM [falling, partial curve].

Q: Which AC50 [1] does the source give for `COc1cccc(NC(=O)CSc2nc(=O)n(Cc3cccnc3)c3c2CCC3)c1` here?
A: Its AC50 is 10 µM [falling, partial curve].

Q: For `Cc1ccc2nc3c(cc(C#N)c(=O)n3-c3nnc(SCc4ccc(F)cc4)s3)c(=O)n2c1`, which AC50 [1] is on record?
A: Its AC50 is 39.8 µM [rising, single point].

Q: Which AC50 [1] does the source give for `COc1ccc(OCC(=O)Nc2ccc(-c3nc4cc(Cl)ccc4o3)cc2)cc1` here?
A: Its AC50 is 10 µM [rising, partial curve, poor fit].

Q: For `CCCN(CCC)C(=O)Cn1c(=O)n(-c2ccc(OC)cc2OC)c(=O)c2c3c(sc21)CCC3`, which AC50 [1] is on record?
A: The AC50 was 39.8 µM [falling, single point].

Q: With `Cc1ccc(Sc2ccc(N3CCCC(C(=O)Nc4ccc(F)c(Cl)c4)C3)nn2)cc1` (stereo not drawn) as the compound, how does the AC50 [1] read?
A: The AC50 was 5.01 µM [falling, full curve].

Q: For `Cc1c(C(=O)NCc2ccccn2)sc2nc(-c3ccccc3)cn12`, which AC50 [1] is on record?
A: Its AC50 is 10 µM [falling, partial curve] [measured here: IkB-luc green channel].

Q: With `NC(=O)c1nc(Nc2ccccc2)sc1NC(=O)c1c(F)cccc1F` as the compound, how does the AC50 [1] read?
A: The AC50 was 0.398 µM [falling, full curve, poor fit].

Q: For `CS(=O)(=O)N(Cc1ccccc1)c1ccc(C(=O)NC2CCCCC2O)cc1` (stereo not drawn), which AC50 [1] is on record?
A: The AC50 was 7.94 µM [falling, partial curve].

Q: With `CCOC(=O)c1ccc(NC(=O)c2c(NCc3sccc3C)sc3c2CCC(C)C3)cc1` (stereo not drawn) as the compound, how does the AC50 [1] read?
A: Its AC50 is 12.6 µM [falling, partial curve].

Q: Which AC50 [1] does the source give for `CN1CCN(C(CNC(=O)C(=O)Nc2ccc(Cl)cc2)c2cccnc2)CC1` (stereo not drawn) here?
A: Its AC50 is 15.8 µM [falling, partial curve].

Q: For `Cc1ccc(C)c(N2CCN(C(=O)CCc3nnc4n(C)c(=O)c5ccccc5n34)CC2)c1`, which AC50 [1] is on record?
A: The AC50 was 20 µM [falling, partial curve].

Q: For `CCOCCCNC(=O)c1c[nH]c2ccc(S(=O)(=O)N(C)c3ccc(Cl)cc3F)cc2c1=O`, which AC50 [1] is on record?
A: The AC50 was 39.8 µM [falling, partial curve].

Q: With `CCOC(=O)c1cccnc1SCC(=O)N(CC)c1cccc(C)c1` as the compound, how does the AC50 [1] read?
A: Its AC50 is 12.6 µM [falling, single point].

Q: With `CC(C)Cn1nc(NC(=O)c2cccc(Cl)c2)c2cc3ccccc3nc21` as the compound, how does the AC50 [1] read?
A: Its AC50 is 0.794 µM [falling, full curve].

Q: With `CCc1ccccc1NC(=O)c1oc(=O)c2ccccc2c1-c1ccccc1` as the compound, how does the AC50 [1] read?
A: The AC50 was 25.1 µM [falling, single point].

Q: With `COc1ccc(Cl)cc1NC(=O)CSc1nc(=O)n(Cc2ccco2)c2c1CCC2` as the compound, how does the AC50 [1] read?
A: The AC50 was 3.98 µM [falling, full curve].

Q: For `Nc1ccc(O)cc1`, which AC50 [1] is on record?
A: Its AC50 is 12.6 µM [rising, full curve] [measured here: IkB-luc green channel].

Q: Which AC50 [1] does the source give for `CCOC(=O)c1ccccc1NC(=O)c1cn(CC(C)C)c(=O)c2cc(OC)c(OC)cc12` here?
A: Its AC50 is 7.94 µM [falling, partial curve].

Q: With `COc1ccc(OC)c(-c2noc(CSc3nnc(-c4ccccc4)n3-c3ccccc3)n2)c1` as the compound, how does the AC50 [1] read?
A: Its AC50 is 31.6 µM [falling, partial curve].

Q: Which AC50 [1] does the source give for `CC(C)=C(C#N)c1nc2ccccc2s1` here?
A: Its AC50 is 0.501 µM [falling, full curve].

Q: Which AC50 [1] does the source give for `CC(C)c1ccc2c(c1)NC(c1ccc(F)cc1)=NC(c1cccs1)=N2` here?
A: Its AC50 is 15.8 µM [falling, partial curve].

Q: Which AC50 [1] does the source give for `COc1cccc(N2CC(NC(=O)c3cc4ccccc4o3)CC2=O)c1` (stereo not drawn) here?
A: The AC50 was 6.31 µM [rising, single point].
